Test results as given in the supplement of paper PMC10849652.
Some of the results follow.

Chains of the proteins cited; added tags and fusions are not shown. Lines headed by an entry give the natural chain unless they say otherwise; changes in a name come on top.
UniProt P25054, whole entry, looked up: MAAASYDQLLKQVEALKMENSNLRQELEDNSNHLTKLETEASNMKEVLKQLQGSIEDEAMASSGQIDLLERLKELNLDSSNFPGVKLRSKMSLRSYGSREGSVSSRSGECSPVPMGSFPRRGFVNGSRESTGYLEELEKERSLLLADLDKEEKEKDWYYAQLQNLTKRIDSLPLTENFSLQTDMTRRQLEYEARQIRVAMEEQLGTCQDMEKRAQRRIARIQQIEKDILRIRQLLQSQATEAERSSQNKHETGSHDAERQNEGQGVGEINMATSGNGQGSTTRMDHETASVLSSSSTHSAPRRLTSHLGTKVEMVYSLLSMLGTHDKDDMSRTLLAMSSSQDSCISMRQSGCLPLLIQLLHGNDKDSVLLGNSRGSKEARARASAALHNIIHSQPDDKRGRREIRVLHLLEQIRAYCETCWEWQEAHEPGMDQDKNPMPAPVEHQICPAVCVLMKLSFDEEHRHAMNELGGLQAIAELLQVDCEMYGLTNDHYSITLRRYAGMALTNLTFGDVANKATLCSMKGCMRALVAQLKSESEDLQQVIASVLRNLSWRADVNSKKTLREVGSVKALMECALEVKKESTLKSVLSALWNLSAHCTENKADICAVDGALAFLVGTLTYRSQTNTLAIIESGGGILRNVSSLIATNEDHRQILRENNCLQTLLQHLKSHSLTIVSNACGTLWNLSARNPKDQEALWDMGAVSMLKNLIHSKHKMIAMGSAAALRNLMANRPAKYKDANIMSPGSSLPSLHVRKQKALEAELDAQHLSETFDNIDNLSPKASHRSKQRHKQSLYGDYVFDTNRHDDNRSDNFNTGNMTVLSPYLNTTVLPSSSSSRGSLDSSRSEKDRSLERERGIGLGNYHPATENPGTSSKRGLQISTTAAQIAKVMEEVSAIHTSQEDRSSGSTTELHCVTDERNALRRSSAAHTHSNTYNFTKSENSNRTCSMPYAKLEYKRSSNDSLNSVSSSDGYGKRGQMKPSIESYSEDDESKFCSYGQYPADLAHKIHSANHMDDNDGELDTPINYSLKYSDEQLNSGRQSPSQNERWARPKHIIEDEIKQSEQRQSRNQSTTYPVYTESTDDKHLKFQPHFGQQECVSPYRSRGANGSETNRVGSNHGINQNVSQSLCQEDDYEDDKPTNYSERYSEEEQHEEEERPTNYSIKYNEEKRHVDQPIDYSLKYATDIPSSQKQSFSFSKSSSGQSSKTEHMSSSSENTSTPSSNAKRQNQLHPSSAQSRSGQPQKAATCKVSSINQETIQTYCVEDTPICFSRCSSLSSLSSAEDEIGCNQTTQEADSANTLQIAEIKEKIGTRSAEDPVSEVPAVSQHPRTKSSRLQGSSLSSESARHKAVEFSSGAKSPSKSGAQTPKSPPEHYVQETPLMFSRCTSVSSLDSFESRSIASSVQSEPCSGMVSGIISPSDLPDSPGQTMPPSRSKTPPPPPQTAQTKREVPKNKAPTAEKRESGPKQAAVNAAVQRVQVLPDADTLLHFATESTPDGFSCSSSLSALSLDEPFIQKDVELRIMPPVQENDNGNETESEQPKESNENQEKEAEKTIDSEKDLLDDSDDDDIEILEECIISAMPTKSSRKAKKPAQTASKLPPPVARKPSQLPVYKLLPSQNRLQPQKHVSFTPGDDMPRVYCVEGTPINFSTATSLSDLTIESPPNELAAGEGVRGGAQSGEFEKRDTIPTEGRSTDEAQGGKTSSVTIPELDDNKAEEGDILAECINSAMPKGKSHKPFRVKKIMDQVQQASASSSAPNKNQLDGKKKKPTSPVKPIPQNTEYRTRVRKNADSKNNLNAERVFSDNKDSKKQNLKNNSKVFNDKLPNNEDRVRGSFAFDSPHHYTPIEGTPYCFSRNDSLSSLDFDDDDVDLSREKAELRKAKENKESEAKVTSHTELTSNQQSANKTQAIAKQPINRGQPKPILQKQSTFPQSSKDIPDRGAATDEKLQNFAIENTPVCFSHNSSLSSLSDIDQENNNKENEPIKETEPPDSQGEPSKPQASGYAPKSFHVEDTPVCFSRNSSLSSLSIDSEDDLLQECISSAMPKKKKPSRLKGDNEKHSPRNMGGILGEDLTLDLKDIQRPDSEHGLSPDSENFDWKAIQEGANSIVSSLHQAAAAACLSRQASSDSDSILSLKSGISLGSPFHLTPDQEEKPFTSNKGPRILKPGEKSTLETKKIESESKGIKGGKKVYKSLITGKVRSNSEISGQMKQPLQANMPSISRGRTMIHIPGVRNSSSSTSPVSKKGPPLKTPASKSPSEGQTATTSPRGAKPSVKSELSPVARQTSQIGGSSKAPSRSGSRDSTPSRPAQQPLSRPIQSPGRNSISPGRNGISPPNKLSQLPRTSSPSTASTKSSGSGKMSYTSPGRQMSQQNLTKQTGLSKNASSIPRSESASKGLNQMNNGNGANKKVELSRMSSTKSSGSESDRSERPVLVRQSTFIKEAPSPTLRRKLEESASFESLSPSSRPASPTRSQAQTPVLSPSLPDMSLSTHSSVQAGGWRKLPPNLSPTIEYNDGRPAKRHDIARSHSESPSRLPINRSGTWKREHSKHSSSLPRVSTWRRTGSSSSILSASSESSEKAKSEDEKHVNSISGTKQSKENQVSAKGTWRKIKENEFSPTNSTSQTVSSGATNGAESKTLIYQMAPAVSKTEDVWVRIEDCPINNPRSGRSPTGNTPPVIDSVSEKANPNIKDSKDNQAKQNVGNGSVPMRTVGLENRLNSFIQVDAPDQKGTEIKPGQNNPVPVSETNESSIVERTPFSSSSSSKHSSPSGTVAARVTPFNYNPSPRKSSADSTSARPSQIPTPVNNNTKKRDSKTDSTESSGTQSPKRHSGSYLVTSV
UniProt Q68CP9, whole entry, looked up: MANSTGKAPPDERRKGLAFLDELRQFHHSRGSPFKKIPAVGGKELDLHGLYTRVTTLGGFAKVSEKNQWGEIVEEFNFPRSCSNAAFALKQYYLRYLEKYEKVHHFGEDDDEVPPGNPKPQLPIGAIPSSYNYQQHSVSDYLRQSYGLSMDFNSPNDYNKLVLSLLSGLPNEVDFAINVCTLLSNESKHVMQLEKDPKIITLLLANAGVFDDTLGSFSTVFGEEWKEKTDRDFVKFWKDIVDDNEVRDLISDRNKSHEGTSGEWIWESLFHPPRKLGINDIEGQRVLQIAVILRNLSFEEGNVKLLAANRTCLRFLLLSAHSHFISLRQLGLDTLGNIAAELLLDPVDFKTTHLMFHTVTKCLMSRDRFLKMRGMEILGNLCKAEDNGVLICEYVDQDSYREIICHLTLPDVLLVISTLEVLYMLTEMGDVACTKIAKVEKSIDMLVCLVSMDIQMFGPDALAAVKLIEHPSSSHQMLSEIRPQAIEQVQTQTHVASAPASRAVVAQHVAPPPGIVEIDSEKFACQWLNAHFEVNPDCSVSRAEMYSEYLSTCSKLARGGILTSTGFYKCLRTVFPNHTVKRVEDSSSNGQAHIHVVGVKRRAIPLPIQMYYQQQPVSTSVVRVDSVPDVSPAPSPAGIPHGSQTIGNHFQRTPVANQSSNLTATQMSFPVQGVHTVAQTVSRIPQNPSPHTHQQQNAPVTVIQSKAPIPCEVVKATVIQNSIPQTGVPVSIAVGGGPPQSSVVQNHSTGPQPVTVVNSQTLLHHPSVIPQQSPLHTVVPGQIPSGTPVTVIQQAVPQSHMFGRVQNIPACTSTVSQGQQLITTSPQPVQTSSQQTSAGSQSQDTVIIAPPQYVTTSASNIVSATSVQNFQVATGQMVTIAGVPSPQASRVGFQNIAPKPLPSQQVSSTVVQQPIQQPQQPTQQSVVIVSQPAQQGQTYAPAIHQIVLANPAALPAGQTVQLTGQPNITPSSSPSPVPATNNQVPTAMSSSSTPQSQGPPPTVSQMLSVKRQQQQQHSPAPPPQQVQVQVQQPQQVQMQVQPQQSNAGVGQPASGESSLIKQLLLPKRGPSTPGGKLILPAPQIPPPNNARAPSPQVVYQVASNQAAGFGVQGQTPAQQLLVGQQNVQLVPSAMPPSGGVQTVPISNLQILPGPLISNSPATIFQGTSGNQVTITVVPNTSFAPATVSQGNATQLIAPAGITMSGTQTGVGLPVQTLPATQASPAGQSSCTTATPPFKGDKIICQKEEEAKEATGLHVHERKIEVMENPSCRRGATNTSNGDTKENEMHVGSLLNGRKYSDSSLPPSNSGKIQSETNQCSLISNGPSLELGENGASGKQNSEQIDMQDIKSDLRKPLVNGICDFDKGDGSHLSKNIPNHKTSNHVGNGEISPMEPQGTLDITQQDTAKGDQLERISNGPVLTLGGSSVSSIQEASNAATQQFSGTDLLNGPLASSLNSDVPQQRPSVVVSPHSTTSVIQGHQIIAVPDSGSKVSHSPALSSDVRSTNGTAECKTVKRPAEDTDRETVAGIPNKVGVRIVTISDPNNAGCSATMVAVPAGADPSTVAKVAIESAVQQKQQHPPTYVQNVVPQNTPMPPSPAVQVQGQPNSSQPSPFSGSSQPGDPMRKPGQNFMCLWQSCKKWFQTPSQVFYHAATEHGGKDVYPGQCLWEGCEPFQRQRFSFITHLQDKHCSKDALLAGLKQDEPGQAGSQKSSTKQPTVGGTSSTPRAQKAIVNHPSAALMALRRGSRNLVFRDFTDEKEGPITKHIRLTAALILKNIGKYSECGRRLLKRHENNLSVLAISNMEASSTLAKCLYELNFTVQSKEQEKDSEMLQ
UniProt P02649, whole entry, looked up: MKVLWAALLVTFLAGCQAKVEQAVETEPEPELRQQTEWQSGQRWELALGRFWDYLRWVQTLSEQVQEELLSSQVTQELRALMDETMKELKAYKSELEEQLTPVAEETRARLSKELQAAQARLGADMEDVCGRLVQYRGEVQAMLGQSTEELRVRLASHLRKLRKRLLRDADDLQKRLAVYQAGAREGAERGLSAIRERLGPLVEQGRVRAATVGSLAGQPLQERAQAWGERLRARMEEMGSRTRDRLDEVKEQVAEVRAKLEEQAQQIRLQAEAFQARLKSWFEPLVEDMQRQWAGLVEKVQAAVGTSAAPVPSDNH
UniProt Q9NWB6: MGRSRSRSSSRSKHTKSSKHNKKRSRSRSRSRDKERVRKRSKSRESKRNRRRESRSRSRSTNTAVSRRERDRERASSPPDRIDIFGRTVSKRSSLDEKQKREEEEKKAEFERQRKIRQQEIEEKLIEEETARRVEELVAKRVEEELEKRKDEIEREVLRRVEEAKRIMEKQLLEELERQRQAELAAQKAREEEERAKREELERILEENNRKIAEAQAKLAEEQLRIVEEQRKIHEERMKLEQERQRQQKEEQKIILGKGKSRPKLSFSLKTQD
UniProt Q3SXY8: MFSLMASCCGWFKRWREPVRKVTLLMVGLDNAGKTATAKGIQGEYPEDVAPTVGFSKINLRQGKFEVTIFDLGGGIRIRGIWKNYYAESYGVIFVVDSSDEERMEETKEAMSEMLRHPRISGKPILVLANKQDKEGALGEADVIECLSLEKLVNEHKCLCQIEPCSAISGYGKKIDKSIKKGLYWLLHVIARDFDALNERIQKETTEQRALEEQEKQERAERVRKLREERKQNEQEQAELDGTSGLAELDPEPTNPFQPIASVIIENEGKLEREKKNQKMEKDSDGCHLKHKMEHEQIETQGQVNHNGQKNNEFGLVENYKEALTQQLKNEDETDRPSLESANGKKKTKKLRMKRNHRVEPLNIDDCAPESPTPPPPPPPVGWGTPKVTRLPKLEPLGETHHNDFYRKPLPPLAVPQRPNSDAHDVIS
UniProt Q68EM7: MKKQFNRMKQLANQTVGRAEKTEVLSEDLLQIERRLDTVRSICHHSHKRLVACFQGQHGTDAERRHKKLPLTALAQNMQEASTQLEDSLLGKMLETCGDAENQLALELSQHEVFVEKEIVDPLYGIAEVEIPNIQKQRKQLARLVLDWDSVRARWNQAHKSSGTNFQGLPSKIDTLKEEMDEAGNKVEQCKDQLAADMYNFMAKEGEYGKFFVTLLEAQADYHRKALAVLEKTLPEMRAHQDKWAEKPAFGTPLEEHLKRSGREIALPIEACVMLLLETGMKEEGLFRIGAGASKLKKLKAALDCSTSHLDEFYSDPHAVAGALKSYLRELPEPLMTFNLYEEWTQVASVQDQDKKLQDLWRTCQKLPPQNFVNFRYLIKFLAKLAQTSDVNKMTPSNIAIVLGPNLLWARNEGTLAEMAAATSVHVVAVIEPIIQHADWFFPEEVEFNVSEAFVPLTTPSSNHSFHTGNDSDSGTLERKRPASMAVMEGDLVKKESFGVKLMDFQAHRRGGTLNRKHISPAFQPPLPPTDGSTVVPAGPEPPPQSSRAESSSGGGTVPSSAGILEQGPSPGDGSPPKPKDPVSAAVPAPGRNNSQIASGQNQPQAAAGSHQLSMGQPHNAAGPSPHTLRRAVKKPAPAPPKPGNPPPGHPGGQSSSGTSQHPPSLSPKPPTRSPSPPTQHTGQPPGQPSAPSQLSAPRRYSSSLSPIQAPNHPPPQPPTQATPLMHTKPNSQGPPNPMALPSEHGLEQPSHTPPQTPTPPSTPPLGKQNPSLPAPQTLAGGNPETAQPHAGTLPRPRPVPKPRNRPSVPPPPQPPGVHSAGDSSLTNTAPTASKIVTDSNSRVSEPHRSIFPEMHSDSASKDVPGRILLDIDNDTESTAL

compound: c1ccc([C@@H]2C[C@H]2NC2CCNCC2)cc1; assay: log2 fold change, soluble protein after heating vs DMSO (PISA); higher = thermal stabilisation; K562 lysate, 10 uM; active = over 0.2 and 3.5 SD of the protein, either way, in both replicates (recomputed)
Procedure, shortened: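 Soluble protein was defined as the supernatant remaining after 21,000xg for 90 min, following pooling of heated aliquots and adjustment to 0.5% NP-40 at 4°C. Before that, crude K562 extract at 1 mg/mL protein in PBS pH 7.4 with 1 mM MgCl2 was treated with 10 μM compound for 30 min and heated for 3 min across 48°C-58°C. Quantification used TMTpro 16plex LC-MS/MS with channel sums equalised, and values are log-two fold changes in thermal stability relative to solvent controls from duplicates.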

Target	log2 fold change
ARHGEF11 isoform 2 (UniProt O15085)	inactive: 0.1
APIP (UniProt Q96GX9)	inactive: -0.196
APC (UniProt P25054)	inactive: 0.111
ARL2 (UniProt P36404)	inactive: 0.059
ARID3B (UniProt Q8IVW6)	inactive: 0
ARF4 (UniProt P18085)	inactive: 0.017
ARCN1 (UniProt P48444)	inactive: -0.014
APOOL (UniProt Q6UXV4)	inactive: -0.044
ARL2BP (UniProt Q9Y2Y0)	inactive: 0.013
ARID2 (UniProt Q68CP9)	inactive: 0.485
ARHGEF12 (UniProt Q9NZN5)	inactive: -0.076
APOE (UniProt P02649)	inactive: 0.026
APOO (UniProt Q9BUR5)	inactive: -0.036
ARGLU1 (UniProt Q9NWB6)	inactive: 0.074
ARPIN isoform 2 (UniProt Q7Z6K5)	inactive: -0.021
AP5M1 (UniProt Q9H0R1)	inactive: 0.028
ARL1 (UniProt P40616)	inactive: 0.026

Target	log2 fold change
ARF6 (UniProt P62330)	inactive: -0.022
ARSA (UniProt P15289)	inactive: -0.031
APTX (UniProt Q7Z2E3)	inactive: 0.036
ARMT1 (UniProt Q9H993)	inactive: 0.073
ARFGAP2 (UniProt Q8N6H7)	inactive: 0.005
ARFIP1 isoform 2 (UniProt P53367)	inactive: 0.073
ARFGEF1 (UniProt Q9Y6D6)	inactive: 0.018
ARID1A (UniProt O14497)	inactive: 0
ARPC1B (UniProt O15143)	inactive: -0.016
ARL13B (UniProt Q3SXY8)	inactive: 0.145
ARHGAP17 (UniProt Q68EM7)	inactive: 0.095
APRT (UniProt P07741)	inactive: -0.02
ASAH1 isoform 2 (UniProt Q13510)	inactive: -0.012
APOBEC3G (UniProt Q9HC16)	inactive: 0.023
ARPC1A (UniProt Q92747)	inactive: 0.01
ARF3 (UniProt P61204)	inactive: -0.066

Some values from the entries so far.
Value for APC (UniProt P25054) under log2 fold change: inactive: 0.111
Value for APRT (UniProt P07741) under log2 fold change: inactive: -0.02
